# Assay results taken from PubChem BioAssay AID2685 (National Center for Advancing Translational Sciences (NCATS), 2010).
# The other results are listed elsewhere or left out. These are further read-outs of the screen, such as a control signal, another cell line or another target. No call is given for them. Most of these compounds were active or inconclusive in the main read-out, so they are no random draw. The note in brackets gives the kind of curve behind each potency; many fits are weak.
# Experiment: qHTS Assay for Lipid Storage Modulators in Drosophila S3 Cells;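 as to cell number change: cells counted by Cell Tracker Red CMTPX staining in the red channel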
# Settings: BODIPY lipid droplet fluorescence, 18-24 h; for cell number change: measured here: cell count max response, cells fed with added oleic acid
# Method in brief: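 Laser-scanning cytometry quantifies lipid droplet accumulation (500–530 nm total intensity; droplet/cell object ratio) in oleic acid-fed (400 uM added) Drosophila S3 cells treated with a concentration series. 20 uM Triacsin C defined 100% inhibition.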
# [1] = measured here: lipid fluorescence (Fed channel) AC50, cells fed with added oleic acid
# [2] = measured here: cell number channel AC50, cells fed with added oleic acid
smiles,measurement,setting,value
C=CCN1C(=O)C(CC(=O)O)SC1=Nc1ccc(C)cc1 (stereo not drawn),cell number change,,8.66%
same,AC50,[1],"29.1 µM [rising, single point]"
Cc1nc(CN2CCN(C(=O)NC3(c4ccccc4)CC3)CC2)cs1,cell number change,,-3.91%
same,AC50,[1],"0.146 µM [falling, full curve, poor fit]"
Cc1cccn2c(=O)c3cc(S(=O)(=O)c4ccccc4)c(=N)n(CC4CCCO4)c3nc12 (stereo not drawn),AC50,[2],"0.0326 µM [rising, full curve, poor fit]"
CCc1ccc(C(=O)C(C)OC(=O)Cn2[nH]c(=O)c3ccccc3c2=O)cc1 (stereo not drawn),cell number change,,-10.6%
same,AC50,[2],"0.651 µM [falling, single point]"
same,AC50,[1],"0.461 µM [falling, single point]"
C#CCn1c2ccccc2c2nc3ccccc3nc21,AC50,[1],"0.13 µM [rising, full curve, poor fit]"
O=P(O)(c1ccc(Cl)cc1)c1ccc(Cl)cc1,cell number change,,-1.9%
same,AC50,[1],"29.1 µM [falling, partial curve]"
Cc1ccc(C)c(NC(=O)c2nnn(Cc3ccccc3C)c2N)c1,cell number change,,-14.2%
same,AC50,[2],"6.51 µM [falling, single point]"
same,AC50,[1],"6.51 µM [falling, single point]"
NC(=O)COC(=O)CCSc1ccc(Cl)cc1,cell number change,,-19.2%
same,AC50,[1],"8.91 µM [falling, partial curve]"
CC1(C)N=C(/C=N/O)CN1O,AC50,[1],"14.6 µM [falling, partial curve, poor fit]"
Cc1cc(NC(=O)CSc2nc(-c3cccs3)nc3ccccc23)no1,cell number change,,-11.9%
Fc1ccccc1Nc1nc2c(s1)CCc1ccccc1-2,cell number change,,-40.8%
same,AC50,[2],"29.1 µM [falling, partial curve]"
same,AC50,[1],"20.6 µM [falling, partial curve]"
COc1ccccc1N1CCN(C(=O)CCCCn2c(=O)[nH]c3ccsc3c2=O)CC1,cell number change,,30.4%
same,AC50,[2],"2.06 µM [rising, partial curve]"
same,AC50,[1],"1.84 µM [rising, partial curve]"
N#CC1(c2nc3ccccc3[nH]2)CC1c1ccc2c(c1)OCO2 (stereo not drawn),cell number change,,23.7%
same,AC50,[1],"0.651 µM [rising, single point]"
O=C(O)/C(=C\c1cccc([N+](=O)[O-])c1)c1ccc(S(=O)(=O)N2CCCCC2)s1,cell number change,,-45.2%
same,AC50,[2],"29.1 µM [falling, single point]"
same,AC50,[1],"29.1 µM [falling, single point]"
Cc1onc(-c2ccccc2)c1C(=O)OCC(=O)N(CC(C)C)c1c(N)n(Cc2ccccc2)c(=O)[nH]c1=O,cell number change,,27.9%
same,AC50,[1],"23.1 µM [rising, partial curve, poor fit]"
CC(C)=C1SC(N2CCOCC2)=NC1=O,cell number change,,-13.4%
same,AC50,[1],"2.91 µM [falling, partial curve, poor fit]"
COc1cc(NC(=O)COC(C)=O)cc(OC)c1OC,cell number change,,-38.5%
COc1ccc(NC(=O)C(C)N2c3cccc4cccc(c34)S2(=O)=O)cc1 (stereo not drawn),cell number change,,152%
COc1ccc(OC)c(/C=C/C(=O)Nc2cccc(S(=O)(=O)N3CCCC3)c2)c1,cell number change,,8.92%
CN(C)C(=O)C12CCC(C)(c3nc4ccccc4nc31)C2(C)C (stereo not drawn),AC50,[2],"4.61 µM [rising, single point]"
CN1C2=CC=CC=CC2=[N+](C)C12C=CC(=[N+]([O-])[O-])C=C2[N+](=O)[O-] (stereo not drawn),cell number change,,5.11%
same,AC50,[2],"0.164 µM [falling, full curve, poor fit]"
same,AC50,[1],"0.13 µM [falling, full curve]"
CC(C)(C)CN1CCC(Oc2cccc(C(=O)NCCCOc3cccnc3)c2)CC1,AC50,[1],"29.1 µM [falling, partial curve, poor fit]"
CN(CCOc1ccccc1)C(=O)CCc1nc2sc3c(c2c(=O)[nH]1)CCCC3,cell number change,,-3.4%
same,AC50,[1],"29.1 µM [rising, single point]"
CN(C(=O)c1ccccc1Cl)c1ccccc1C(=O)NCc1ccccc1,cell number change,,3.47%
same,AC50,[1],"6.51 µM [falling, single point]"
Cc1nn(-c2ccccc2)nc1C(N)=O,cell number change,,17.7%
same,AC50,[2],"6.51 µM [falling, partial curve, poor fit]"
same,AC50,[1],"7.31 µM [falling, partial curve, poor fit]"
Nc1cc(=O)nc(SCC(=O)Nc2ccccc2Cl)n1-c1ccccc1,AC50,[1],"0.164 µM [falling, full curve, poor fit]"
CC(C)n1c(C(F)(F)F)nc2cc(C(=O)N3CCOCC3)ccc21,cell number change,,-30.9%
same,AC50,[2],"0.00461 µM [falling, full curve]"
CC1(C)CC(c2nc(-c3ccccc3)cs2)CCS1 (stereo not drawn),cell number change,,-10.2%
same,AC50,[1],"32.6 µM [falling, single point]"
c1ccc(CSc2nc3ncncc3[nH]2)cc1,cell number change,,23.9%
same,AC50,[1],"16.4 µM [rising, partial curve]"
Cc1nc2c3ccccc3n(Cc3ccccc3F)c2s1,cell number change,,-62.6%
same,AC50,[2],"29.1 µM [falling, single point]"
same,AC50,[1],"0.731 µM [rising, single point]"
CCOCCc1nnc(N)s1,cell number change,,9.62%
same,AC50,[1],"29.1 µM [falling, partial curve]"
COc1ccc2ccc(O)c(CN3CCN(S(=O)(=O)c4cc([N+](=O)[O-])ccc4C)CC3)c2c1,cell number change,,-8.84%
same,AC50,[1],"2.06 µM [rising, full curve, poor fit]"
Cn1c(=O)c(C(=O)COC(=O)c2cc(-c3ccccc3)nc3ccccc23)c(N)n(Cc2ccccc2)c1=O,cell number change,,-13%
same,AC50,[1],"1.3 µM [rising, partial curve]"
Cc1c(Cl)c([N+](=O)[O-])nn1CC(=O)N1CCCc2ccccc21,cell number change,,22%
same,AC50,[2],"0.00461 µM [rising, full curve, poor fit]"
same,AC50,[1],"16.4 µM [rising, single point]"
O=C(CN(Cc1ccc(F)cc1)C(=O)CCC(=O)Nc1ccccn1)NCCc1ccccc1,cell number change,,19.4%
same,AC50,[2],"0.231 µM [rising, full curve, poor fit]"
same,AC50,[1],"0.58 µM [rising, single point]"
NS(=O)(=O)c1ccc(CNC(=O)c2ccc(S(=O)(=O)NCc3ccco3)cc2)cc1,cell number change,,5.18%
same,AC50,[1],"16.4 µM [rising, partial curve]"
Cc1cc(NC(=O)C2CC(c3ccc(Cl)cc3)=NO2)no1 (stereo not drawn),cell number change,,-24.2%
same,AC50,[1],"0.116 µM [falling, full curve, poor fit]"
Cn1cc([N+](=O)[O-])c(C(=O)Nc2ccc(-c3nc4ccccc4[nH]3)cc2)n1,cell number change,,30.1%
same,AC50,[2],"1.64 µM [rising, partial curve]"
same,AC50,[1],"0.231 µM [rising, full curve, poor fit]"
CCCC1C(=O)N2C(N(C)C)=Nc3ccc(C)cc3N2C1=O (stereo not drawn),cell number change,,21.5%
same,AC50,[1],"20.6 µM [rising, single point]"
COC(=O)c1[nH]c2ccccc2c1CN1CCOCC1,cell number change,,-3.65%
same,AC50,[1],"4.11 µM [rising, single point]"
CC1CCOC2(O1)C(=O)N(CN1CCN(c3ccccc3F)CC1)c1ccccc12 (stereo not drawn),cell number change,,2.87%
O=C(O)CC(SCC(=O)Nc1ccc(S(=O)(=O)N2CCCC2)cc1)C(=O)O (stereo not drawn),cell number change,,-31.4%
same,AC50,[1],"29.1 µM [falling, single point]"
CNC(=O)CSCc1c(Cl)cccc1Cl,cell number change,,-3.65%
same,AC50,[2],"6.51 µM [falling, single point]"
same,AC50,[1],"20.6 µM [falling, single point]"
CCOC(=O)C(C(=O)OCC)c1cc(Br)c2noc3c2c1C(=O)c1ccccc1-3,cell number change,,-78.8%
same,AC50,[2],"13 µM [falling, partial curve, poor fit]"
same,AC50,[1],"0.00517 µM [falling, full curve, poor fit]"
COc1cc(NC(=O)c2ccc(Br)cc2)c(OC)cc1NC(=O)c1ccccc1,AC50,[1],"29.1 µM [falling, single point]"
O=C(CCCSc1ccccc1)Nc1nc(-c2ccccn2)cs1,AC50,[2],"0.651 µM [rising, single point]"
same,AC50,[1],"0.731 µM [rising, single point]"
Cc1cc(C=NCCO)c(C)n1-c1cc(Cl)ccc1Cl,cell number change,,14%
same,AC50,[2],"0.13 µM [falling, full curve, poor fit]"
CCOC(=O)c1cnc2c(F)ccc(F)c2c1Sc1ccccc1,cell number change,,-13%
same,AC50,[1],"32.6 µM [falling, single point]"
CC(/C=C/c1ccccc1)=N/O,cell number change,,15.5%
same,AC50,[1],"18.4 µM [rising, partial curve]"
O=C(Nc1cc2c(cc1Cl)OCCCO2)c1ccccc1,cell number change,,43.1%
same,AC50,[2],"20.6 µM [rising, partial curve, poor fit]"
same,AC50,[1],"2.91 µM [rising, single point]"
COc1ccc(/C=C2/SC(=S)N(CCCC(=O)Nc3ccc(O)cc3)C2=O)cc1,cell number change,,-39.7%
Cc1ccc(SCCCCN2CCOCC2)cc1,cell number change,,8.99%
O=C(c1ccc(Br)cc1)C1CCc2occc2C1=O (stereo not drawn),cell number change,,26.1%
same,AC50,[1],"4.61 µM [falling, single point]"
CCn1cc(C(=O)N2CCc3ccccc32)c(=O)c2cc(S(=O)(=O)N3CC(C)CC(C)C3)ccc21 (stereo not drawn),cell number change,,6.41%
same,AC50,[1],"2.06 µM [rising, partial curve, poor fit]"
COc1cccc(NC(=O)CSCC(=O)O)c1,AC50,[1],"29.1 µM [falling, single point]"
Cc1ccc(C)c(OCCC(=O)Nc2cccc(S(=O)(=O)N3CCCCC3)c2)c1,AC50,[1],"8.2 µM [falling, partial curve]"
O=C(CCn1c(=O)[nH]c2ccccc2c1=O)N1CCN(c2cccc(C(F)(F)F)c2)CC1,cell number change,,-26.8%
same,AC50,[1],"29.1 µM [falling, single point]"
[O-]/C(=C(\C(=S)Nc1cccc2ccccc12)[n+]1ccccc1)c1ccc(Cl)s1,cell number change,,-18.6%

# Part of the list above, as tab-separated lines:
smiles	measurement	setting	value
Cn1c(=O)c(C(=O)COC(=O)c2cc(-c3ccccc3)nc3ccccc23)c(N)n(Cc2ccccc2)c1=O	AC50	[1]	1.3 µM [rising, partial curve]
Cc1c(Cl)c([N+](=O)[O-])nn1CC(=O)N1CCCc2ccccc21	cell number change		22%
same	AC50	[2]	0.00461 µM [rising, full curve, poor fit]
same	AC50	[1]	16.4 µM [rising, single point]

# Laid out differently: results already given
smiles	measurement	setting	value
CC1(C)N=C(/C=N/O)CN1O	AC50	[1]	14.6 µM [falling, partial curve, poor fit]
Cc1cc(NC(=O)CSc2nc(-c3cccs3)nc3ccccc23)no1	cell number change		-11.9%
